# Library screening results

By UniProt entry, the sequences of proteins in these tests, tags left out.
UniProt E9BF75, entry or part of it: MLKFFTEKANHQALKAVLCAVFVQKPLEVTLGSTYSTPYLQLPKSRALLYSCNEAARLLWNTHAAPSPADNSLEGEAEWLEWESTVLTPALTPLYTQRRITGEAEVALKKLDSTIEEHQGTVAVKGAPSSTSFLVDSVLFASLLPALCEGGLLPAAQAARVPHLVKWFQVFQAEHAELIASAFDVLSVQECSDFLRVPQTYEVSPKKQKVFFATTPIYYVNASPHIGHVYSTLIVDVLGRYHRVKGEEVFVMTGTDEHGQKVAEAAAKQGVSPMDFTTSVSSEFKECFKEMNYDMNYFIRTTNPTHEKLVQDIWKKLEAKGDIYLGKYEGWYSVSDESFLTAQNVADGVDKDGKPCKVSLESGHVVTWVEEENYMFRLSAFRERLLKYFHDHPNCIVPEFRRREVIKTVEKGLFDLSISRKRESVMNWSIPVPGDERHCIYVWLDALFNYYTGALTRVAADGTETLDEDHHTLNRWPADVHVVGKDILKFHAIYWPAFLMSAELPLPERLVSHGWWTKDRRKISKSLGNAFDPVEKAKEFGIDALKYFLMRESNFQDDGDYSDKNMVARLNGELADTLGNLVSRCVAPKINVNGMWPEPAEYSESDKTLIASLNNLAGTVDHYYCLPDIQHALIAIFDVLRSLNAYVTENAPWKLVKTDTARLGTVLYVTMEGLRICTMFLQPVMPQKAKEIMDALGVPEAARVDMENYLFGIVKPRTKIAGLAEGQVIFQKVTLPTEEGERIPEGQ

Data taken from ChEMBL document CHEMBL3988442, “University of Dundee, Small-Polar-MMV Screening Library” (2021).

Results are percentages, as filed.
How 0% and 100% were set is not recorded. Most values in the screen are low, and negative values occur.
The compounds are a random part of those screened.

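Methionyl-tRNA synthetase (putative), Leishmania donovani (UniProt E9BF75). Primary screen of methionyl-tRNA synthetase; the read-out is not stated. The test concentration is not given. The values are filed as inhibition. Size under these conditions: about 68,000 compounds, about 24 of them at 50% or above in at least one test.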

Compound	Inhibition
COc1ccccc1OCC(=O)NS(=O)(=O)c1ccc(Cl)cc1F	8.152%
CC(=O)N[C@H]1CCO[C@@H](c2cccc(NC(=O)c3ccc(=O)[nH]n3)c2)C1	2.907%
CCc1ncc2c(n1)CN(Cc1nnc(Cc3ccccc3)o1)CC2	20%
CC(NC(=O)CCCn1cnc2ccccc2c1=O)c1ncn[nH]1 (stereo unspecified)	15.59%
O=C(c1cccnc1)N1CCSCC1	5.943%
CC(Cc1ccco1)NC(=O)CSc1nnc[nH]1 (stereo unspecified)	6.354%
CCC(Sc1ncc(CO)n1C)c1ccccc1 (stereo unspecified)	13.35%
CCN1CCN(C2CCN(Cc3c(C)noc3C)CC2)C1=O	10.8%
Cn1cc(CN2CCCC(CCc3ccc(F)cc3)C2)cn1 (stereo unspecified)	8.333%
CC(C)CN1C(=O)CC[C@H]2CN(C(=O)Cn3ccccc3=O)CC[C@H]21	12.5%
Cc1nnc(CN2CCN(CCOc3ccccc3C#N)CC2)n1C	17.32%
CCCn1[nH]cc/c1=N\C(=O)CN1CCCC1c1cccn1C (stereo unspecified)	17.74%
Cc1nc(C2CCCN2CCCc2nc3ccccc3o2)no1 (stereo unspecified)	13.19%
COC(=O)c1cc(OCC2CCC2)cc(C(=O)N[C@H](C)C(N)=O)c1	3.846%
CN(Cc1ccccc1)C(=O)CS(=O)(=O)Cc1ccc(Cl)c(Cl)c1	6.529%
O=C1NCCN1C1CCN(CC(O)c2ccccc2F)CC1 (stereo unspecified)	18.42%
Cc1nc(CN(C)C2CCN(Cc3ccc4c(c3)OCCO4)C2)no1 (stereo unspecified)	20.14%
CC(C)[C@@H]1CN(C(=O)C2(c3ccccc3)CCN(C)CC2)C[C@H]1N(C)C	6.991%
CCCc1cnc(C)nc1N1CCC(Cc2cccc(C(N)=O)c2)C1 (stereo unspecified)	12.93%
Cc1c(OCC(=O)NCc2ccccc2)c(=O)ccn1C	10.61%
CCNC(=O)c1c2c(N3CCN(C)CC3)ncnc2n2ccccc12	5.882%
CCOc1ccc(NC(=O)c2cnc(N3CCCC3)nc2C)cc1	7.843%
CC(C)OCCS(=O)(=O)N1CCCC1c1cccc(N(C)C)c1 (stereo unspecified)	8.865%
CC(Cn1ccnc1)NC(=O)Cc1ccc2c(c1)OCCO2 (stereo unspecified)	15.66%
CN1C[C@@H](C(=O)NC(C)(C)C)[C@@]2(COc3ccc(F)cc3C2=O)C1	1.562%
CCCC(NC(=O)NCc1cccc(N(C)C)n1)c1ccccn1 (stereo unspecified)	15.86%
c1ccc(O[C@H]2COCCN(Cc3cccc4c3OCO4)C2)cc1	6.767%
Cc1cc(C)n(CCCNC(=O)C(C)NC(=O)CC2CCCCC2)n1 (stereo unspecified)	-5.077%
CC(C)Cc1cc(C(=O)N2CCCC(n3cncn3)C2)[nH]n1 (stereo unspecified)	16.67%
O=C(O)c1nnn(-c2ccc(F)c(F)c2)c1-c1ccncc1	13.38%
O=C(c1ccsc1)N1C[C@@H]2CCN(C(=O)c3cscn3)[C@@H]2C1	9.836%
CCCc1nnc(NC2CCN(Cc3ccc(F)c(F)c3)CC2)o1	17.25%
CC(=O)N1C[C@H]2CN(CC3CC3)C(=O)[C@H]2C1	4.444%
CN1CCOC(CN(C(=O)COc2ccccc2)c2nccs2)C1 (stereo unspecified)	23.33%
COc1cccc(C(=O)NC(C)CCN2CCOCC2)c1F (stereo unspecified)	8.974%
CC(C)(C)c1cnc(CN2CCCCC2Cn2cccn2)o1 (stereo unspecified)	7.229%
O=C(O)C1(Cc2cc(-c3ccccc3F)no2)CCOCC1	5.085%
c1ccc2sc(CN3CCCC3c3noc(C4CC4)n3)nc2c1 (stereo unspecified)	16.19%
Cn1nc(C2CCCN(Cc3ccc(F)cc3)C2)c2nccnc21 (stereo unspecified)	13.54%
O=C(c1ccsc1)N1CCc2c(COCc3ccncc3)cncc2C1	11.5%
CCc1nc(CN2CCCC(NCc3nnc(C4CC4)o3)C2)no1 (stereo unspecified)	11.81%
Cc1cn2nc(N3CCCC3C(=O)N3CCN(C)CC3)sc2n1 (stereo unspecified)	0.2882%
Cc1nc(S(=O)(=O)N2CCC3(CCCCC3)C2)cn1C	11.2%
CN1CCCC2(C1)CN(C(=O)C1CCCCC1)CCO2 (stereo unspecified)	10%
c1cc(-c2nc3c(c(NCCn4ccnn4)n2)CCNCC3)ccn1	9.253%
c1cncc(CN2CCC3(CCCN(c4nncs4)C3)C2)c1 (stereo unspecified)	3.093%
CNC(=O)C1CN(C)CCN1c1nc(C)cc(C)n1 (stereo unspecified)	-3.492%
Cc1ccccc1-n1cnnc1SCC(=O)NCC1CCCO1 (stereo unspecified)	-7.229%
O=C(CN1CCC(C(=O)c2cc(F)ccc2F)CC1)NC1CC1	17.58%
O=C1CC2(CCCCN2C(=O)c2cccs2)CN1CC1CC1 (stereo unspecified)	9.936%
Clc1cncc(N2CCN(Cc3ccon3)CC2)n1	16.51%
COc1ccccc1CN1C(=O)O[C@@H]2CN(C(C)C)C[C@@H]21	10.65%
CCC(CO)N(Cc1cccs1)C(=O)CSC (stereo unspecified)	6.944%
Cc1noc(COCC(=O)Nc2ccc(Br)c(C)n2)n1	8.659%
O=C(c1cnccn1)N1C[C@@H]2CN(Cc3cccnc3)CCO[C@@H]2C1	0.6536%
OCC1(CC2CC2)CCCN(Cc2ccc(C(F)(F)F)nc2)C1 (stereo unspecified)	1.918%
CC1c2ncc(CN3CCN(C)CC3)n2CCN1Cc1cccnc1 (stereo unspecified)	17.15%
CCCSc1ncc(CN(C)CCN2CCCCC2)cn1	11.17%
Cc1nc2c(c(NCc3nc4ccccc4s3)n1)CCNCC2	21.28%
COc1ccc(OC)c(Nc2nc3c(C)nn(C)c3c(=O)n2C)c1	3.226%
CC(C)[C@H]1CN(Cc2c[nH]nn2)C[C@@H]1NC(=O)C1CCOCC1	-7.463%
CS(=O)(=O)N[C@@H]1CCN(Cc2cccnc2)[C@H]1Cc1ccccc1	6.667%
Cc1[nH]ncc1CCCNC(=O)Nc1ccc(C#N)cc1	12.68%
COc1cc(C)nc(N2CCN(C(=O)CCc3nccs3)CC2)n1	3.986%
NC(=O)N1CCCCCC1C1CCN(c2nccc(C(F)(F)F)n2)CC1 (stereo unspecified)	13.68%
CC1CCCN(Cc2ccc(CNC(=O)NCc3ccncc3)cc2)C1 (stereo unspecified)	13.04%
CC(C)CN1C(=O)C2(CCCC2)NC1c1cccnc1 (stereo unspecified)	9.89%
CC(C)(C)c1nccc(N2CCN(C3CCS(=O)(=O)C3)CC2)n1 (stereo unspecified)	13.17%
CC(NCCn1cccn1)c1cc(F)ccc1F (stereo unspecified)	9.415%
Cc1cccnc1CN1CCN(C(=O)c2cc(Cl)c[nH]c2=O)CC1	5.867%
CC(=O)N1CCO[C@@H]2CN(C(=O)c3cc(C)oc3C)CC[C@@H]2C1	5.724%
CCc1nc(Cn2nc(C3CCNCC3)n(-c3ccccc3)c2=O)cs1	-2.978%
O=C1CC(c2ccncc2)C2(CCN(C(=O)NC3CC3)CC2)N1 (stereo unspecified)	12.8%
Cc1nnc(NCc2ccccc2S(=O)(=O)N(C)C)c(C#N)c1C	14.29%

Some entries from above, unchanged:

Compound	Inhibition
CC1CCCN(Cc2ccc(CNC(=O)NCc3ccncc3)cc2)C1 (stereo unspecified)	13.04%
CCCn1[nH]cc/c1=N\C(=O)CN1CCCC1c1cccn1C (stereo unspecified)	17.74%
CC(Cc1ccco1)NC(=O)CSc1nnc[nH]1 (stereo unspecified)	6.354%
Cc1nc(S(=O)(=O)N2CCC3(CCCCC3)C2)cn1C	11.2%
CN1CCOC(CN(C(=O)COc2ccccc2)c2nccs2)C1 (stereo unspecified)	23.33%
Cc1nc2c(c(NCc3nc4ccccc4s3)n1)CCNCC2	21.28%
O=C1CC(c2ccncc2)C2(CCN(C(=O)NC3CC3)CC2)N1 (stereo unspecified)	12.8%
O=C(O)C1(Cc2cc(-c3ccccc3F)no2)CCOCC1	5.085%
O=C(c1cccnc1)N1CCSCC1	5.943%